Molecules are shown by their SMILES.

Here are results for two molecules from PMC3620317, “Optimisation of Embryonic and Larval ECG Measurement in Zebrafish for Quantifying the Effect of QT Prolonging Drugs” (PLoS ONE, 2013).

The subject of the data set is 3 dpf zebrafish larvae. Description: ECG recording in zebrafish larvae before and after drug treatment. As to conditions: from QTc percentage change before and after drug treatment.

As for `CC(C)(C)c1ccc(C(O)CCCN2CCC(C(O)(c3ccccc3)c3ccccc3)CC2)cc1` (centres unmarked) [terfenadine], the “Mean Z-factor score” value by setting is: (Terfenadine 0.1 µM) −1.671; (Terfenadine 0.3 µM) −0.254; (Terfenadine 10 µM) −0.371; (Terfenadine 30 µM) 0.68; (Terfenadine 30 µM, listed as Terfenadine) 0.676; (Terfenadine 50 µM) 0.78. Further, where the note is “Terfenadine 50 µM, listed as Terfenadine”, the “Mean Z-factor score” value is 0.784.
For the molecule `COc1ccc(CCN(C)CCCC(C#N)(c2ccc(OC)c(OC)c2)C(C)C)cc1OC` (centres unmarked) [verapamil], where the note is “Verapamil 25 µM”, the “Mean Z-factor score” value was −6.747.
